According to the supplement of paper PMC12067093, “Discovery and optimisation of a covalent ligand for TRIM25 and its application to targeted protein ubiquitination” (Chemical Science, 2025):
Some of the results follow.

The chains behind the UniProt entries cited, without tags or fusion partners. Where a name states a change or a piece, a line headed by the entry shows the natural chain unless it says otherwise.
UniProt Q9UQ80: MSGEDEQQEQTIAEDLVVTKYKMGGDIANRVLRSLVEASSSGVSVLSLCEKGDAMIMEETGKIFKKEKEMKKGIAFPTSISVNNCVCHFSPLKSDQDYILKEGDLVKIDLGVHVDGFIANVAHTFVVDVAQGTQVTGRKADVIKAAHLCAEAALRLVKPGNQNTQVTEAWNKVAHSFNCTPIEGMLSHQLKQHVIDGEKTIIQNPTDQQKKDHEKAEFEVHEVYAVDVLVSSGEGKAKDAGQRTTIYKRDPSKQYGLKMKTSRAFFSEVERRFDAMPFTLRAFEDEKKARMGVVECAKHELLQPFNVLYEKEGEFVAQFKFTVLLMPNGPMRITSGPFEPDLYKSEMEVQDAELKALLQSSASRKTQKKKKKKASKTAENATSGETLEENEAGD
UniProt Q460N5, whole entry, looked up: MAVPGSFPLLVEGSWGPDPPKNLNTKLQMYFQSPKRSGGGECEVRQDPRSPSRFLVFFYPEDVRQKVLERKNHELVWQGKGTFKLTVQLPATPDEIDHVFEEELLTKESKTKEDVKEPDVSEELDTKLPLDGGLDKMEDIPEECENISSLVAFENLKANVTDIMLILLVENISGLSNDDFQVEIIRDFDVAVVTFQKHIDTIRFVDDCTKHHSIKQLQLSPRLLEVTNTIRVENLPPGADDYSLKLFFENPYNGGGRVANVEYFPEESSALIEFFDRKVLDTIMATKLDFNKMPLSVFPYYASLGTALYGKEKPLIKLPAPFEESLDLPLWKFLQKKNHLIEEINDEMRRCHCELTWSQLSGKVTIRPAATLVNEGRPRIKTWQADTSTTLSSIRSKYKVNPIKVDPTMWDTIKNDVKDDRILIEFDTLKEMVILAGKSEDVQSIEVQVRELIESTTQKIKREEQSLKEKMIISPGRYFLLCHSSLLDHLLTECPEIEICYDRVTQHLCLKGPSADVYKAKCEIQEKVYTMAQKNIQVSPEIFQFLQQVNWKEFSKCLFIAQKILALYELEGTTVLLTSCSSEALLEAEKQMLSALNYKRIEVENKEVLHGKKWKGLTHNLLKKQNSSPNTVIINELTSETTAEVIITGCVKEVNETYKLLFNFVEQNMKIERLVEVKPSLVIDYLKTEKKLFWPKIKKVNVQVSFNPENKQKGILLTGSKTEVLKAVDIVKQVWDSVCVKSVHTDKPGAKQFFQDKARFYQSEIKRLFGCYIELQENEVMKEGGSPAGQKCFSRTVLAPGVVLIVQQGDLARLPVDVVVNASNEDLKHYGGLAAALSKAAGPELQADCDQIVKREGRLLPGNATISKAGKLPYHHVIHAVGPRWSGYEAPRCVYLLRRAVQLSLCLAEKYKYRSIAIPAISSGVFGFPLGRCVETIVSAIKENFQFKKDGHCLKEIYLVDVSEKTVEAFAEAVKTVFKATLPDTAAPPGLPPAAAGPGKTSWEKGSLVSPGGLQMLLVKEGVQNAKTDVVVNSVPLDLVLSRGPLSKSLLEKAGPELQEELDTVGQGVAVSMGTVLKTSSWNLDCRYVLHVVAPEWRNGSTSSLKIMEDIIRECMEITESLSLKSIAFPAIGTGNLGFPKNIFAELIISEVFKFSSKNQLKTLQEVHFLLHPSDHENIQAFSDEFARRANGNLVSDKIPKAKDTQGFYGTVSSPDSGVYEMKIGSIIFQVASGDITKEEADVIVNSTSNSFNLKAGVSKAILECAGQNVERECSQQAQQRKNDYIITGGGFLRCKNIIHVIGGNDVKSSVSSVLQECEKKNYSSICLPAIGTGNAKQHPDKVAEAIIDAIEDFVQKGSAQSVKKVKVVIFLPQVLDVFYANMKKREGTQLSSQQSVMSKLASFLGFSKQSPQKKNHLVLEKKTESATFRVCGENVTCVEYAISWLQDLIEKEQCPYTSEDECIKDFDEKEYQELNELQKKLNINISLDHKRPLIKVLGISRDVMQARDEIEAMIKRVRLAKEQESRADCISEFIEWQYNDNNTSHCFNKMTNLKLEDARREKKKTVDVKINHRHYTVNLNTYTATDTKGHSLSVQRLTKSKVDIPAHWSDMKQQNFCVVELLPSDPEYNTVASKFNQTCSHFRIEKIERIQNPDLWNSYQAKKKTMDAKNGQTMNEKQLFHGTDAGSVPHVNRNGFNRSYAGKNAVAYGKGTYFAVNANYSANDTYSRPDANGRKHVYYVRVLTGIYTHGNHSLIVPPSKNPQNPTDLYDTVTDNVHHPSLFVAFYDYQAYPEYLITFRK
UniProt Q32P28: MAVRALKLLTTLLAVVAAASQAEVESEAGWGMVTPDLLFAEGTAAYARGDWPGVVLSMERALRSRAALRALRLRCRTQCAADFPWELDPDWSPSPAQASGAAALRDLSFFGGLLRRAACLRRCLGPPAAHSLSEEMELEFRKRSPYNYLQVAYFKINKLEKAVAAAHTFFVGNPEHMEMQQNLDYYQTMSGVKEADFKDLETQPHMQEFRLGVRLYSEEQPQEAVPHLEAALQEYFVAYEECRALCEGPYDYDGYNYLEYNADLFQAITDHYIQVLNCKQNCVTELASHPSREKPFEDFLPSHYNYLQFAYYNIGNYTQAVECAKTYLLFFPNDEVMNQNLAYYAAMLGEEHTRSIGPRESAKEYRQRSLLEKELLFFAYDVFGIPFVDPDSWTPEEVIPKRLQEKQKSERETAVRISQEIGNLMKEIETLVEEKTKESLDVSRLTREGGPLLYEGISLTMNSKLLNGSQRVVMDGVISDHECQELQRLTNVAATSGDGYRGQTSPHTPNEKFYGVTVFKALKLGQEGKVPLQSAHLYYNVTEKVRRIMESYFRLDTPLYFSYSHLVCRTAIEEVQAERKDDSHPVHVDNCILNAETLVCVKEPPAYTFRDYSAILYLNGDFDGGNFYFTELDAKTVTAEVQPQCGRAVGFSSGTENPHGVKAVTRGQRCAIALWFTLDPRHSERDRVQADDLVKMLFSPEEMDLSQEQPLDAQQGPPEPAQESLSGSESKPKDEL
UniProt O43929: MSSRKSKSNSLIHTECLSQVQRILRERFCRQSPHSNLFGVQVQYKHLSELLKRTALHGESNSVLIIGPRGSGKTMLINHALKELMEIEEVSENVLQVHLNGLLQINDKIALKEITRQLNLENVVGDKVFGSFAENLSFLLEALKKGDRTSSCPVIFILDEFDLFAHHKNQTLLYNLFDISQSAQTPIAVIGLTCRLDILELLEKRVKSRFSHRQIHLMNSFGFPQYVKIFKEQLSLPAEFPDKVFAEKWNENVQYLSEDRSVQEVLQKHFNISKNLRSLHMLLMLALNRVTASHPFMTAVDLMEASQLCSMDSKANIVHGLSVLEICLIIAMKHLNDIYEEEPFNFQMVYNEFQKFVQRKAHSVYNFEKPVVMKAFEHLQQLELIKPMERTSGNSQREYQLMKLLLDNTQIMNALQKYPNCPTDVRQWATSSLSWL
UniProt Q6VY07, whole entry, looked up: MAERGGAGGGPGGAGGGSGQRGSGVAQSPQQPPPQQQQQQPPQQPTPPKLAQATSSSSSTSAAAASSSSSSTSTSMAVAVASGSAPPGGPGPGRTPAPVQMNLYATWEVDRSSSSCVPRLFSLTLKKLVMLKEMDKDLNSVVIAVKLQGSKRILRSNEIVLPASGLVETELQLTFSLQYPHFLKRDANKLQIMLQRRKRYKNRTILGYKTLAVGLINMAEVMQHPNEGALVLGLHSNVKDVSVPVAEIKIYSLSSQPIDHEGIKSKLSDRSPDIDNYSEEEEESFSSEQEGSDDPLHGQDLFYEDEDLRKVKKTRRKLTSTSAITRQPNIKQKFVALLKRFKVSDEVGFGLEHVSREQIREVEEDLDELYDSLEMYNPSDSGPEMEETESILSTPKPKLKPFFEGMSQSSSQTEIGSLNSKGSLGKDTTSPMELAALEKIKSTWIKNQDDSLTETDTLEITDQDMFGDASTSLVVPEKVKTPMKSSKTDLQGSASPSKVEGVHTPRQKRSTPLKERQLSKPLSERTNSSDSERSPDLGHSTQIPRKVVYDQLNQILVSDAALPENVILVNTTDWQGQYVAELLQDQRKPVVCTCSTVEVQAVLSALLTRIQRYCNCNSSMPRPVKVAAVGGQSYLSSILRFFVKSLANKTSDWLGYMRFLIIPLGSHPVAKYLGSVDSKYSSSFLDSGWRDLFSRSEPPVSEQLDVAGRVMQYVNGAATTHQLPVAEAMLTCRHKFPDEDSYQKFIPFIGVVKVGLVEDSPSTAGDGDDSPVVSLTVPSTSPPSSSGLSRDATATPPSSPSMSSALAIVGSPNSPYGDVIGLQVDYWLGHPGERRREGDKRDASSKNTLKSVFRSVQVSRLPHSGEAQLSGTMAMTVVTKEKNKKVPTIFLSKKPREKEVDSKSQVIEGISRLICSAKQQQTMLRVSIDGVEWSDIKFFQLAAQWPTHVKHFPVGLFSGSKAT
UniProt Q99571: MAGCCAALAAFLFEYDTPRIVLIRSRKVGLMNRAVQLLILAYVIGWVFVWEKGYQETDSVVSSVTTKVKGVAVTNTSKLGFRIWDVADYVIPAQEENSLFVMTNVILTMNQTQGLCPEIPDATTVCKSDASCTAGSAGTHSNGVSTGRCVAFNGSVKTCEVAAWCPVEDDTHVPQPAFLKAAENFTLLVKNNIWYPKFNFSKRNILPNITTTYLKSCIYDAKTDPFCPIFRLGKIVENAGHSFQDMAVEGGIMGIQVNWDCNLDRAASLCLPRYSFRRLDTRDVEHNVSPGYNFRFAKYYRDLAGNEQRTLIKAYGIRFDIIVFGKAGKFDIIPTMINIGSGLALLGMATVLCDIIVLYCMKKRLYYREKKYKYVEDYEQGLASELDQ
UniProt P09874, whole entry, looked up: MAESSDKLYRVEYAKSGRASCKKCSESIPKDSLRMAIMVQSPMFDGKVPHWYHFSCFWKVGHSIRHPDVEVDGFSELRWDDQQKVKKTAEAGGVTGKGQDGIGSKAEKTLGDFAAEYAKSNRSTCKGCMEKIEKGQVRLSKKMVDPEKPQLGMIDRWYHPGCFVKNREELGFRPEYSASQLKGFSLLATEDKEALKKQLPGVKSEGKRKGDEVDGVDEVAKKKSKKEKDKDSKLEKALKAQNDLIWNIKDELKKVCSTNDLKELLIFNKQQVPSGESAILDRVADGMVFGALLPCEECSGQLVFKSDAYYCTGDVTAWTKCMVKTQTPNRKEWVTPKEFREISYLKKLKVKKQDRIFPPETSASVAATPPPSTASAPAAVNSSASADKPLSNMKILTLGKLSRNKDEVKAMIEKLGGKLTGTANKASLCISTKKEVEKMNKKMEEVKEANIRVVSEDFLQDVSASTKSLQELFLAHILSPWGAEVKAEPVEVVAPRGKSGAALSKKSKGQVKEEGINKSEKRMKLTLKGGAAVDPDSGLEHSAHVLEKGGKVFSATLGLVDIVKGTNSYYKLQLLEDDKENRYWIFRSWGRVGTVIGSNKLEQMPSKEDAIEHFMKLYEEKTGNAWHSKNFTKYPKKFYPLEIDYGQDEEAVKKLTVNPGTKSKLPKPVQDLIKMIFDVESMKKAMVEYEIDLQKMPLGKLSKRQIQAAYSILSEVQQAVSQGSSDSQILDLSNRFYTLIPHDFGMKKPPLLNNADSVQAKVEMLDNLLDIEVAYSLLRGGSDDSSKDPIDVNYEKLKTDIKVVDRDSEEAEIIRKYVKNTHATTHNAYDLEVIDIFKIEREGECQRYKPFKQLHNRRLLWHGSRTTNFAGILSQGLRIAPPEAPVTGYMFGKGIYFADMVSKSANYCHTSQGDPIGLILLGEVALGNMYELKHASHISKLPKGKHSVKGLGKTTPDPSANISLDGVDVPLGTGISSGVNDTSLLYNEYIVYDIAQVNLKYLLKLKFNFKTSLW
UniProt Q9NVE7: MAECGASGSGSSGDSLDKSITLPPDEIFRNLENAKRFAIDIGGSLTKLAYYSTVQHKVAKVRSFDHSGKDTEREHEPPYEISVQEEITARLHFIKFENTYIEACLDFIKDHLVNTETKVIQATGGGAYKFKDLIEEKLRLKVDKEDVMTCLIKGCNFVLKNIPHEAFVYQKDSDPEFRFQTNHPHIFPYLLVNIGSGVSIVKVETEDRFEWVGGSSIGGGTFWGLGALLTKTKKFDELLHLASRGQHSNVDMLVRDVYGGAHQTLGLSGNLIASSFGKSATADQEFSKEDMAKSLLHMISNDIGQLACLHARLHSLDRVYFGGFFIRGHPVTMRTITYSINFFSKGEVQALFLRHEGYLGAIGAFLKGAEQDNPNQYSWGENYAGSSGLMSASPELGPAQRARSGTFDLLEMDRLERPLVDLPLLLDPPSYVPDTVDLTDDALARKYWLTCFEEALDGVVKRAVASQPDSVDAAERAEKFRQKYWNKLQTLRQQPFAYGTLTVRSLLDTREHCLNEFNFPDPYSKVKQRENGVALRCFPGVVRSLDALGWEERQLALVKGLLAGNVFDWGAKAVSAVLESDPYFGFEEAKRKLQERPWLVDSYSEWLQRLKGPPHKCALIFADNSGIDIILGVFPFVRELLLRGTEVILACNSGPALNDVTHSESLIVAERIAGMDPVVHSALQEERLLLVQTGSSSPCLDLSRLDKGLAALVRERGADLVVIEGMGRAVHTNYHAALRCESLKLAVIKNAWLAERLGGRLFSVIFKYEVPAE

Compound: Cc1cc(ccc1-c1ccccc1)C(=O)N1CCCN(CC1)C(=O)CCl [compound 10]
Experiment: probe-labelled cysteine peptide fold change vs DMSO (competition) (log2 fold change); higher = less target engagement (more negative = stronger competition)
Conditions: THP-1, incubation time: 4 h
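Also: competitive profiling in live THP-1 cells: cysteine peptides tagged with an iodoacetamide desthiobiotin (IA-DTB) probe, intensity after compound treatment relative to DMSO-treated cells.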

Target | probe-labelled cysteine peptide fold change (10 µM) | probe-labelled cysteine peptide fold change (50 µM)
PA2G4_Q9UQ80_149_AAHLCAEAALR (UniProt Q9UQ80) | 0.0776 | 0.162
OSBPL1A_Q9BXW6_297_STDSCLFFIK (UniProt Q9BXW6) | -0.165 | -0.436
PARP14_Q460N5_351+353_CHCELTWSQLSGK (UniProt Q460N5) | -0.0305 | -0.488
P3H1_Q32P28_600_KDDSHPVHVDNCILNAETLVCVK (UniProt Q32P28) | -0.12 | -0.00152
ORC4_O43929_152_TSSCPVIFILDEFDLFAHHK (UniProt O43929) | 0.343 | 0.354
ORC5_O43913_409_CTVSLDFIR (UniProt O43913) | 0.0915 | 0.28
PACS1_Q6VY07_732_VMQYVNGAATTHQLPVAEAMLTCR (UniProt Q6VY07) | 0.122 | 0.216
P2RX4_Q99571_227_TDPFCPIFR (UniProt Q99571) | -0.235 | 0.0728
PARP2_Q9UGN5_288_KIEDCIR (UniProt Q9UGN5) | 0.128 | -0.0817
PALD1_Q9ULE6_382_AITACAELHDLK (UniProt Q9ULE6) | -0.02 | -0.092
PARK7_Q99497_46_DPVQCSR (UniProt Q99497) | -0.268 | 0.22
PA2G4_Q9UQ80_49_SLVEASSSGVSVLSLCEK (UniProt Q9UQ80) | -0.0834 | -0.246
P3H1_Q32P28_645_TVTAEVQPQCGR (UniProt Q32P28) | -0.116 | 0.122
OTULIN_Q96BN8_347_VCEETSL (UniProt Q96BN8) | -0.398 | -0.113
OPA1_O60313_853_TALNHCNLCR (UniProt O60313) | -0.0933 | 0.00191
P3H1_Q32P28_600_DDSHPVHVDNCILNAETLVCVK (UniProt Q32P28) | 0.119 | 0.277
OSBPL3_Q9H4L5_114_CIDLDTEEHIYHLK (UniProt Q9H4L5) | -0.107 | 0.0518
P3H1_Q32P28_568_LDTPLYFSYSHLVCR (UniProt Q32P28) | -0.35 | 0.386
OSBPL1A_Q9BXW6_739+746_CVLNFKPCGLFGK (UniProt Q9BXW6) | -0.0515 | -0.377
OSBPL1A_Q9BXW6_711_GTITLELLEHNEAYTWTNPTCCVHNIIVGK (UniProt Q9BXW6) | 0.0211 | 0.214
PARP1_P09874_298_VADGMVFGALLPCEECSGQLVFK (UniProt P09874) | -0.0775 | -0.0125
PANK4_Q9NVE7_651_GTEVILACNSGPALNDVTHSESLIVAER (UniProt Q9NVE7) | -0.119 | -0.258
P4HA1_P13674_503_HAACPVLVGNK (UniProt P13674) | 0.21 | 0.116
OTUD6B_Q8N6M0_158_QIPSDGHCMYK (UniProt Q8N6M0) | -0.0185 | -0.106
